Data as given in PubChem BioAssay AID1508587 (Peter MacCallum Cancer Centre, 2020)
In all, the deposit lists about 1,600 reagents; this is an unselected part. Over the whole deposit, 623 (39%) got an active call. 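Calls are for each duplex; lactate ratios contain extreme outliers.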 Reagents against one gene are numbered here. Further read-outs or replicates are left out here.

- Assay: 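Retest of knockdowns boosting BRAF inhibitor action on lactate release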 (follow-up of hits)
- Cell system: human WM266.4 melanoma cells with a BRAF V600 mutation
- Knock-down reagent: single siRNA against human genes, 25 nM
- Duration: 96 h
- Challenge: vemurafenib 300 nM (about IC25), given 48 h after transfection for 48 h
- Detection: 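Medium lactate read by absorbance over DAPI-counted nuclei; ratio with versus without vemurafenib, set against non-targeting siRNA, averaged over 2 replicates; cell number also recorded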
- Scale: lactate per cell, drug vs no drug: higher = less drug-induced drop in lactate per cell; lactate per cell with vemurafenib: higher = more lactate per cell under drug; lactate per cell without drug: higher = more lactate per cell without drug; cell growth with vemurafenib: higher = more cell growth over 48 h
- Active means: 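Enhancer call for any duplex whose drug versus no-drug per-cell lactate ratio is below 0.55 (2 SD beneath non-targeting average); genes confirmed when at least 2 of their 4 duplexes qualify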

gene | siRNA no. | lactate per cell, drug vs no drug | lactate per cell with vemurafenib | lactate per cell without drug | cell growth with vemurafenib | outcome
SHMT1 | 1 | 1.04 | 2.56 | 1.6 | 0.35 | inactive
SHMT1 | 2 | 0.64 | 1.73 | 1.8 | 0.24 | inactive
SHMT1 | 3 | 0.66 | 1.08 | 1.07 | 0.82 | inactive
SHMT1 | 4 | 0.7 | 1.5 | 1.4 | 0.51 | inactive
CCDC121 | 1 | 0.52 | 1.31 | 1.59 | 0.2 | active
CCDC121 | 2 | 0.4 | 0.8 | 1.26 | 0.66 | active
CCDC121 | 3 | 0.88 | 1.9 | 1.37 | 0.02 | inactive
CCDC121 | 4 | 0.55 | 1.14 | 1.36 | 0.12 | inactive
AK4 | 1 | 0.4 | 2.52 | 4.13 | 0.2 | active
AK4 | 2 | 0.56 | 1.34 | 1.54 | 0.49 | inactive
AK4 | 3 | 0.53 | 1.28 | 1.66 | 0.46 | active
AK4 | 4 | 0.54 | 0.85 | 1 | 1.07 | active

Continued (2 carried over from the part before).
gene | siRNA no. | lactate per cell, drug vs no drug | lactate per cell with vemurafenib | lactate per cell without drug | cell growth with vemurafenib | outcome
AK4 | 3 | 0.53 | 1.28 | 1.66 | 0.46 | active
AK4 | 4 | 0.54 | 0.85 | 1 | 1.07 | active
CYP1A1 | 1 | 0.57 | 1.22 | 1.38 | 0.79 | inactive
CYP1A1 | 2 | 0.7 | 2.46 | 2.29 | -0.04 | inactive
CYP1A1 | 3 | 0.55 | 0.68 | 0.81 | 0.13 | inactive
CYP1A1 | 4 | 0.52 | 0.52 | 0.68 | 0.33 | active
EDC4 | 1 | 0.67 | 1.66 | 1.75 | 0.02 | inactive
EDC4 | 2 | 0.81 | 2.42 | 2.02 | 0.1 | inactive
EDC4 | 3 | 0.55 | 1.28 | 1.6 | 0.49 | inactive
EDC4 | 4 | 0.38 | 1.2 | 2.13 | 0.4 | active
